Reference: PubChem BioAssay AID1259308 (NCATS, 2017)

Screen: 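Candidate targets for better recombinant protein yield in mammalian cells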 (primary screen)
Cells: human HEK293 embryonic kidney cells stably expressing firefly luciferase (HEK-CMV-Luc2-Hygro)
Reagent: single siRNA against human genes, 0.8 pmol siRNA per well
Timing: 72 h
Read-out: 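Luciferase light (ONE-Glo) measured on one replicate plate set and viability (CellTiter-Glo) on the other, scaled to a negative control siRNA, with robust z-scores and luciferase per cell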
Scale: total luciferase, z-score and total luciferase, % of control: higher = more reporter protein produced; luciferase per cell, z-score: higher = more reporter output per viable cell; viable cells, % of control: higher = more viable cells
Active means: 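An siRNA counts as active if its total luciferase robust z-score exceeds 3; genes with two or more such siRNAs out of three were retested with fresh siRNAs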
Meaning of the calls: active = raised luciferase; inactive = no rise
Here is an unselected part of about 59,000 reagents. About 1,510 of them (2.6%) were called active. 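Calls use total luciferase alone and ignore viability, so some active siRNAs may act by altering cell number.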 The numbers tell different reagents against one gene apart.

Gene | reagent | total luciferase, z-score | total luciferase, % of control | luciferase per cell, z-score | viable cells, % of control | Outcome
IK | 1 | 1.74 | 116 | 3.85 | 47.3 | inactive
IK | 2 | 0.401 | 89.9 | 3.8 | 37 | inactive
IK | 3 | 0.552 | 92.9 | 0.0823 | 102 | inactive
ADH1B | 1 | 0.936 | 100 | 0.695 | 93.5 | inactive
ADH1B | 2 | -0.787 | 66.2 | -0.849 | 92.6 | inactive
ADH1B | 3 | -0.131 | 79.3 | 0.384 | 80.1 | inactive
TRPT1 | 1 | -0.00325 | 81.8 | 0.223 | 86.2 | inactive
TRPT1 | 2 | -0.971 | 62.6 | -0.951 | 89.8 | inactive
TRPT1 | 3 | -0.596 | 70 | -1.18 | 107 | inactive
SLC25A53 | 1 | -0.76 | 66.8 | 0.113 | 72.4 | inactive
SLC25A53 | 2 | 0.276 | 87.4 | 0.0834 | 95.5 | inactive
SLC25A53 | 3 | 1.24 | 107 | 0.684 | 99.5 | inactive
BARX2 | 1 | -0.873 | 64.5 | -0.789 | 88.7 | inactive
BARX2 | 2 | -0.309 | 75.7 | -1 | 110 | inactive
BARX2 | 3 | 0.529 | 92.4 | -0.305 | 112 | inactive
HCP5 | 1 | -0.753 | 66.9 | -0.234 | 79.5 | inactive
HCP5 | 2 | -1.15 | 59 | -0.918 | 83.9 | inactive
HCP5 | 3 | -0.566 | 70.6 | -0.639 | 93.4 | inactive
NFKBIB | 1 | -0.0458 | 81 | -0.37 | 99.7 | inactive
NFKBIB | 2 | 1.57 | 113 | 1.5 | 85.1 | inactive
NFKBIB | 3 | 0.932 | 100 | 0.819 | 90.5 | inactive
DENND2C | 1 | -0.516 | 71.6 | 0.566 | 69 | inactive
DENND2C | 2 | 0.751 | 96.8 | 1.5 | 72.9 | inactive
DENND2C | 3 | 0.356 | 89 | 0.571 | 85.5 | inactive

Sorted by “viable cells, % of control” (lowest first): 3 of the entries above.
Gene | reagent | total luciferase, z-score | total luciferase, % of control | luciferase per cell, z-score | viable cells, % of control | Outcome
DENND2C | 1 | -0.516 | 71.6 | 0.566 | 69 | inactive
NFKBIB | 2 | 1.57 | 113 | 1.5 | 85.1 | inactive
NFKBIB | 3 | 0.932 | 100 | 0.819 | 90.5 | inactive

The listing continues.
Gene | reagent | total luciferase, z-score | total luciferase, % of control | luciferase per cell, z-score | viable cells, % of control | Outcome
KAT7 | 1 | -1.14 | 59.1 | -0.844 | 82.5 | inactive
KAT7 | 2 | -0.023 | 81.4 | -0.501 | 104 | inactive
KAT7 | 3 | 0.265 | 87.2 | 0.55 | 84.3 | inactive
PLCB3 | 1 | 1.31 | 108 | 1.84 | 74.3 | inactive
PLCB3 | 2 | 0.277 | 87.4 | -0.312 | 106 | inactive
PLCB3 | 3 | 2.15 | 125 | 1.67 | 89.7 | inactive
WFIKKN1 | 1 | -1.69 | 48.3 | -1.21 | 74.4 | inactive
WFIKKN1 | 2 | 0.362 | 89.1 | 0.686 | 83.1 | inactive
WFIKKN1 | 3 | -0.366 | 74.6 | -0.764 | 102 | inactive
DKK4 | 1 | -0.308 | 75.8 | -0.451 | 95.3 | inactive
DKK4 | 2 | -0.261 | 76.7 | 0.0854 | 83.8 | inactive
DKK4 | 3 | -0.873 | 64.5 | -0.465 | 81.5 | inactive
GOLGA6L2 | 1 | 2.93 | 140 | 1.89 | 95.3 | inactive
GOLGA6L2 | 2 | 1.64 | 114 | 1.83 | 78.9 | inactive
GOLGA6L2 | 3 | 1.39 | 110 | 1.59 | 80.6 | inactive
